Test results from the supplement of paper PMC10849652.
This is one part of the list. Residues, ends and D or L forms follow the SMILES beside them. *: point of attachment. Cbz = O=C(OCc1ccccc1)*

Chains of the proteins cited; added tags and fusions are not shown. Lines headed by an entry give the natural chain unless they say otherwise; changes in a name come on top.
UniProt P63218: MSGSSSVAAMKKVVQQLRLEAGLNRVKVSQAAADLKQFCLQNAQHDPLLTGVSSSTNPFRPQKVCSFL
UniProt P13224: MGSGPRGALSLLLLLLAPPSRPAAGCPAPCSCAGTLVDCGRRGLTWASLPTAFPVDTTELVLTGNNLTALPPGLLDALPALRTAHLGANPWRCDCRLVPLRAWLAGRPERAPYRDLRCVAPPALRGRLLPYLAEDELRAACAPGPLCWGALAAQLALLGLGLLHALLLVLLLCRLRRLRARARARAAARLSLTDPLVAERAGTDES
UniProt Q9UI32: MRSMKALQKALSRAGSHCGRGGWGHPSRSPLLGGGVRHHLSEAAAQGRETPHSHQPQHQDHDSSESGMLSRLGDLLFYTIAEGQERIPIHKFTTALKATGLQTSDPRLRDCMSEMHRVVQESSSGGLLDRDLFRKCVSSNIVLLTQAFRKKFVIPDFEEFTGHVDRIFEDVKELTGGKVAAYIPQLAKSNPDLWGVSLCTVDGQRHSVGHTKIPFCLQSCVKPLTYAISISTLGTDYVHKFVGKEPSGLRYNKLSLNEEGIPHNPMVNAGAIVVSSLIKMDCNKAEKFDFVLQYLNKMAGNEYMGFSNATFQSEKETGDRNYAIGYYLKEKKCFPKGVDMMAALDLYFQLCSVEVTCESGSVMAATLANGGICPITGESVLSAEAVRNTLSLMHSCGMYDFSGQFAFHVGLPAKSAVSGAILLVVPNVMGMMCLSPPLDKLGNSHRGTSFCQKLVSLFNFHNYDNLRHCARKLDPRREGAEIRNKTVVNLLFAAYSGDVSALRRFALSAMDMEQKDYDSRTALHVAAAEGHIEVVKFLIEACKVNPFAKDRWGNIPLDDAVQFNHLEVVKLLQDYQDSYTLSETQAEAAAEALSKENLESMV
UniProt Q9Y4H4: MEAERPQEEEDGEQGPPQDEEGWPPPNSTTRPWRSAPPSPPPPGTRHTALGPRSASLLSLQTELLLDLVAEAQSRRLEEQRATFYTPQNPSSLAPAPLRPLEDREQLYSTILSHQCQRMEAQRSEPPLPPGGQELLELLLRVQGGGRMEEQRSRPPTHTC
UniProt Q8TD30: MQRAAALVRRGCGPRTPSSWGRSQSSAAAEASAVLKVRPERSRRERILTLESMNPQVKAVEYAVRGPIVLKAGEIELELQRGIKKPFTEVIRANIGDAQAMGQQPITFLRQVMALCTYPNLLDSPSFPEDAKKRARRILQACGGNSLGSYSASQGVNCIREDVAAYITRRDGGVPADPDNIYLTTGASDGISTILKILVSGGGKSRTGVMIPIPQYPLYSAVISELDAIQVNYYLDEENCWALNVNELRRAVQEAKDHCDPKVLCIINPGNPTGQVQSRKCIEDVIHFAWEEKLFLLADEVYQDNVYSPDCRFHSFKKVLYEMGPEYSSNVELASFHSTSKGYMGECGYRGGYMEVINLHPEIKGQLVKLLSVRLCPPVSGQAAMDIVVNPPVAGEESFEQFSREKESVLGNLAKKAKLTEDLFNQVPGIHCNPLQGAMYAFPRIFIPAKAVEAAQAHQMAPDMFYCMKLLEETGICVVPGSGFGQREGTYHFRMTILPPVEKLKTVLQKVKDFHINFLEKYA

Columns and labels:
Assay in all cases: log2 fold change, soluble protein after heating vs DMSO (PISA); higher = thermal stabilisation; K562 cells, 10 uM, 30 min; active = over 0.2 and 3.5 SD of the protein, either way, in both replicates (recomputed)
IRAK-1-4 Inhibitor I = compound: C1COCCN1CCN2C3=CC=CC=C3N=C2NC(=O)C4=CC(=CC=C4)[N+](=O)[O-] [IRAK-1-4 Inhibitor I]
Method in brief: (§1)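 K562 cells at 2×10^6 cells/mL were given 10 μM compound for 30 min. Aliquots then went through 3 min of heating across 48°C-58°C, were pooled, and were extracted in PBS with 0.5% NP-40 at 4°C, and the supernatant after 21,000xg for 90 min was quantified by TMTpro 16plex LC-MS/MS with channel sums equalised. Thermal stability relative to control samples, from duplicates, is given as log2 fold change.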

ibrutinib = compound: C=CC(=O)N1CCC[C@@H](n2nc(-c3ccc(Oc4ccccc4)cc3)c3c(N)ncnc32)C1 [ibrutinib]
Method in brief: as §1

[1] = compound: CC(=O)c1cnc2ccc(-c3cc(Cl)c(O)c(Cl)c3)nc2c1N[C@H]1CC[C@H](CN(C)C)CC1
Method in brief: as §1

ralimetinib = compound: CC(C)(C)Cn1c(N)nc2ccc(-c3[nH]c(C(C)(C)C)nc3-c3ccc(F)cc3)nc21 [ralimetinib]
Method in brief: as §1

[2] = compound: CC(C)(O)CC(=O)NCCn1ccc2ncnc(Nc3ccc(Oc4cccc(C(F)(F)F)c4)c(Cl)c3)c21
Method in brief: as §1

[3] = compound: CC(C)C1=C2N=C(C=C(N2N=C1)NCC3=CC=CC=C3)NCCCCCCN
Method in brief: as §1

[4] = compound: CC(C)C[C@@H](C=O)NC(=O)[C@H](CC(C)C)NC(=O)[C@H](CC(C)C)NC(=O)OCc1ccccc1
Method in brief: as §1

pinometostat = compound: CC(C)N(C[C@H]1O[C@@H](n2cnc3c(N)ncnc32)[C@H](O)[C@@H]1O)[C@H]1C[C@@H](CCc2nc3cc(C(C)(C)C)ccc3[nH]2)C1 [pinometostat]
Method in brief: as §1

[5] = compound: CC1=C(C2=C(C=C1)C(=O)C3=CC=CC=C3N2CCCN)C
Method in brief: as §1

[6] = compound: CC1=C(C=C(C=C1)NC(=O)C2=CC(=CC=C2)C(C)(C)C#N)NC3=CC4=C(C=C3)N=CN(C4=O)C
Method in brief: as §1

[7] = compound: CC1=C(C=C(C=C1)NC(=O)C2=CC(=CC=C2)N(C)C)NC(=O)C3=CC=C(C=C3)O
Method in brief: as §1

[8] = compound: CC1=CC=C(C=C1)SC2=C3C=C(SC3=CN=C2)C(=O)N
Method in brief: as §1

[9] = compound: CC1=NC(=CC=C1)C2=C(N=C(N2)C(C)(C)C)C3=CC4=NC=CN=C4C=C3
Method in brief: as §1

Nexturastat A = compound: CCCCN(Cc1ccc(C(=O)NO)cc1)C(=O)Nc1ccccc1 [Nexturastat A]
Method in brief: as §1

vemurafenib = compound: CCCS(=O)(=O)Nc1ccc(F)c(C(=O)c2c[nH]c3ncc(-c4ccc(Cl)cc4)cc23)c1F [vemurafenib]
Method in brief: as §1

[10] = compound: CCCS(=O)(=O)Nc1ccc(F)c(C(=O)c2c[nH]c3ncc(Cl)cc23)c1F
Method in brief: as §1

[11] = compound: CCCc1cc(C)[nH]c(=O)c1CNC(=O)c1cc(-c2ccnc(N3CCN(C)CC3)c2)cc2c1cnn2C(C)C
Method in brief: as §1

givinostat = compound: CCN(CC)Cc1ccc2cc(COC(=O)Nc3ccc(C(=O)NO)cc3)ccc2c1 [givinostat]
Method in brief: as §1

barasertib = compound: CCN(CCCOc1ccc2c(Nc3cc(CC(=O)Nc4cccc(F)c4)[nH]n3)ncnc2c1)CCOP(=O)(O)O [barasertib]
Method in brief: as §1

[12] = compound: CC1=C(C(CC(=O)N1)C2=CC=C(C=C2)C(F)(F)F)C(=O)NC3=C(C=C4C(=C3)C=NN4)F
Method in brief: as §1

Measured: log2 fold change

GNG5 (UniProt P63218)
inactive: IRAK-1-4 Inhibitor I -0.022 | ibrutinib 0.039 | [1] 0.047 | ralimetinib 0.072 | [2] -0.084 | [3] 0.109 | [4] -0.065 | pinometostat -0.072 | [5] 0.002 | [6] 0.147 | [7] -0.17 | [8] -0.02 | [9] 0.074 | Nexturastat A 0.068 | vemurafenib 0.038 | [10] 0.004 | [11] 0.022 | givinostat -0.063 | barasertib -0.064

GPAA1 (UniProt E9PLG8)
inactive: IRAK-1-4 Inhibitor I -0.208 | ibrutinib -0.023 | [1] -0.073 | pinometostat -0.044 | [12] -0.094 | [5] -0.086 | [9] 0.207 | [11] -0.104 | barasertib -0.142

GP1BB isoform 2 (UniProt P13224)
inactive: IRAK-1-4 Inhibitor I -0.009 | ibrutinib 0.006 | [1] 0.018 | [2] 0.093 | [3] 0.027 | pinometostat 0.018 | [12] -0.005 | [5] 0.001 | [6] -0.014 | [8] -0.024 | [9] 0.013 | Nexturastat A -0.029 | vemurafenib 0.018 | [10] -0.034 | [11] 0.017 | givinostat 0.042 | barasertib 0

GLS2 (UniProt Q9UI32)
inactive: [1] -0.148

GPSM3 (UniProt Q9Y4H4)
inactive: [1] -0.029 | [12] -0.062 | [6] -0.206 | [8] 0.107 | vemurafenib 0.095 | [10] -0.01 | [11] -0.178

GPT2 (UniProt Q8TD30)
inactive: [1] -0.18 | ralimetinib -0.019 | [4] 0.079 | [5] -0.027 | [7] -0.057 | [8] 0.07 | vemurafenib 0.137 | [10] -0.038 | [11] 0.327
